# Assay results reported in PubChem BioAssay (NCATS).
# Inconclusive means that the source gave no clear call. Such entries were picked first, then a sample of the others. For some assays here: Where the call is inconclusive, the potency comes from a doubtful curve fit. Activity calls are given as the source filed them. Calls come from the whole dose curve; as a rule, active = well fitted curve in the direction sought with a large enough effect; inconclusive = small, poorly fitted or top-dose-only effect, or another doubt; inactive = no such curve, though single readings can be large; an effect the other way counts as inactive or inconclusive.
# Experiments:
# [1] = qHTS of pediatric cancer cell lines to identify multiple opportunities for drug repurposing: Primary screen for Rh41 cells (AID 1347108); note: nearly all actives have a fitted effect of over 70% in size; note: potency is the fitted concentration of half-maximal effect;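 for activity change, negative = cytotoxic: luminescence drop marks cytotoxic hits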
# In short: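 Following a 5-hour attachment period, cells at 500-1,000/well received compounds and were cultured for 48 hours. CellTiter-Glo was added and luminescence read to estimate viable, metabolically active cells.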
# [2] = qHTS of pediatric cancer cell lines to identify multiple opportunities for drug repurposing: Primary screen for Rh30 cells (AID 1347107); note: nearly all actives have a fitted effect of over 75% in size; note: potency is the fitted concentration of half-maximal effect
# In short: (§1)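 Cells (500-1,000/well) in growth media were settled 5 h at 37 degrees C, then given compounds for 48 h. Viability was read as CellTiter-Glo luminescence. Primary runs used MIPE at 11 points (0.78 nM-46 µM) and NPC at 8 points (0.59 nM-46 µM); follow-ups used 11 points.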
# [3] = qHTS of pediatric cancer cell lines to identify multiple opportunities for drug repurposing: Confirmatory screen for SK-N-MC cells (AID 1347111);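 note: cells exposed to compound for 48 h before the readout; nearly all actives have a fitted effect of over 70% in size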; note: potency is the fitted concentration of half-maximal effect
# In short: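 Metabolically active cells were quantified by ATP-dependent luminescence (CellTiter-Glo, 15 min at room temperature) following 48 h treatment. Cells had been plated at 500-1,000 per well and settled for 5 h beforehand.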
# [4] = qHTS of pediatric cancer cell lines to identify multiple opportunities for drug repurposing: Confirmatory screen for NB-EBc1 cells (AID 1347115);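 note: cells exposed to compound for 48 h before the viability read; nearly all actives have a fitted effect of over 45% in size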; note: potency is the fitted concentration of half-maximal effect
# In short: as §1
# [5] = qHTS of pediatric cancer cell lines to identify multiple opportunities for drug repurposing: Confirmatory screen for SJ-GBM2 cells (AID 1347116); note: nearly all actives have a fitted effect of over 60% in size; note: potency is the fitted concentration of half-maximal effect
# In short: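 Viability measured as metabolically active cells via CellTiter-Glo luminescence following 48 hours of compound exposure, 11-point dilutions in confirmatory testing. 500-1,000 cells/well plated 5 hours before dosing; controls were DMSO and 2.3 µM bortezomib.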
# [6] = qHTS of pediatric cancer cell lines to identify multiple opportunities for drug repurposing: Confirmatory screen for control Hh wild type fibroblast cells (AID 1347121); note: potency is the fitted concentration of half-maximal effect; nearly all actives have a fitted effect of over 70% in size
# In short: as §1
# [7] = qHTS of pediatric cancer cell lines to identify multiple opportunities for drug repurposing: Confirmatory screen for U-2 OS cells (AID 1347122); note: nearly all actives have a fitted effect of over 65% in size; note: potency is the fitted concentration of half-maximal effect
# In short: as §1
# [8] = qHTS of pediatric cancer cell lines to identify multiple opportunities for drug repurposing: Confirmatory screen for RD cells (AID 1347124);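 note: cells exposed to compound for 48 h before viability readout; nearly all actives have a fitted effect of over 65% in size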; note: potency is the fitted concentration of half-maximal effect
# In short: as §1
# [9] = qHTS of pediatric cancer cell lines to identify multiple opportunities for drug repurposing: Confirmatory screen for Rh18 cells (AID 1347125); settings: Rh18 rhabdomyosarcoma cells, viability; activity change, negative = cytotoxic: at 45.9 µM (top of the series); note: nearly all actives have a fitted effect of over 55% in size; note: potency is the fitted concentration of half-maximal effect
# In short: as §1
# [10] = qHTS of pediatric cancer cell lines to identify multiple opportunities for drug repurposing: Confirmatory screen for BT-12 cells (AID 1347112); note: nearly all actives have a fitted effect of over 55% in size; note: potency is the fitted concentration of half-maximal effect
# In short: as §1
# [11] = qHTS of pediatric cancer cell lines to identify multiple opportunities for drug repurposing: Confirmatory screen for LAN-5 cells (AID 1347113); note: nearly all actives have a fitted effect of over 65% in size; note: potency is the fitted concentration of half-maximal effect
# In short: as §1
# [12] = qHTS of pediatric cancer cell lines to identify multiple opportunities for drug repurposing: Confirmatory screen for TC32 cells (AID 1347118); settings: TC32 Ewing sarcoma cells viability qHTS; series mostly up to 45.9 µM;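 note: cells exposed to compound for 48 h before the read; nearly all actives have a fitted effect of over 65% in size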
# In short: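 Measured quantity: luminescence from CellTiter-Glo, reflecting metabolically active TC32 cells following 48 h of compound. Curves came straight from multi-point titrations, with 8 or 11 points in primary and 11 in confirmatory screening.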
# [13] = qHTS of pediatric cancer cell lines to identify multiple opportunities for drug repurposing: Confirmatory screen for MG 63 (6-TG R) cells (AID 1347119); note: nearly all actives have a fitted effect of over 55% in size; note: potency is the fitted concentration of half-maximal effect
# In short: as §1
# [14] = qHTS of pediatric cancer cell lines to identify multiple opportunities for drug repurposing: Confirmatory screen for A673 cells (AID 1347110); note: potency is the fitted concentration of half-maximal effect
# In short: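 Cells plated at 500-1,000/well were treated five hours later with multi-point dilutions up to 46 µM final. After two days, CellTiter-Glo was added and luminescence read.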
# [15] = qHTS of pediatric cancer cell lines to identify multiple opportunities for drug repurposing: Confirmatory screen for Rh41 cells (AID 1347123);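 note: potency is the fitted concentration of half-maximal effect; 48 h compound exposure; nearly all actives have a fitted effect of over 60% in size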
# In short: as §1
structure (smiles),measurement,setting,value
O=c1oc2c(O)c(O)cc3c(=O)oc4c(O)c(O)cc1c4c23,Potency,[1],"inconclusive: 13.2 µM [cytotoxic, partial curve]"
O=c1cc(-c2ccc(O)c(O)c2)oc2cc(O)cc(O)c12,Potency,[1],"inconclusive: 20.9 µM [cytotoxic, partial curve]"
CCC[C@@H](NC(=O)[C@@H]1[C@H]2CCC[C@@H]2CN1C(=O)[C@@H](NC(=O)[C@@H](NC(=O)c1cnccn1)C1CCCCC1)C(C)(C)C)C(=O)C(=O)NC1CC1,Potency,[1],"inconclusive: 23.5 µM [cytotoxic, single point]"
C[C@]12CC[C@H](O)CC1=CCC1C2CC[C@]2(C)C(n3cnc4ccccc43)=CCC12 (stereo not given in full),Potency,[1],"inconclusive: 33.2 µM [cytotoxic, partial curve, poor fit]"
CC(=O)OCC(=O)[C@@]1(O)[C@H](C)C[C@H]2[C@@H]3C=C(C)C4=Cc5c(cnn5-c5ccccc5)C[C@]4(C)[C@@H]3[C@@H](O)C[C@@]21C,Potency,[2],"inconclusive: 16.6 µM [cytotoxic, partial curve]"
same,Potency,[3],active: 2.93 µM
same,Potency,[4],active: 23.3 µM
same,Potency,[5],active: 13.1 µM
same,Potency,[6],"inconclusive: 13.1 µM [cytotoxic, partial curve]"
same,Potency,[7],active: 9.27 µM
same,Potency,[8],active: 9.27 µM
same,Potency,[9],active: 16.5 µM
CC1(C)S[C@H]2[C@H](NC(=O)[C@@H](N)c3ccc(O)cc3)C(=O)N2[C@@H]1C(=O)O,Potency,[2],"inconclusive: 14.8 µM [cytotoxic, partial curve]"
same,Potency,[3],"inconclusive: 11.7 µM [cytotoxic, partial curve]"
same,Potency,[10],inactive
same,Potency,[11],inactive
same,Potency,[4],inactive
same,Potency,[5],inactive
same,Potency,[12],inactive
same,Potency,[13],inactive
same,Potency,[7],inactive
same,Potency,[8],inactive
same,Potency,[9],inactive
CN(C[C@@H]1COCCO1)S(=O)(=O)Nc1ccc2ccc3ncc(-c4cnn(C)c4)cc3c(=O)c2c1,Potency,[1],"inconclusive: 2.09 µM [cytotoxic, partial curve]"
CCOC(=O)Nc1ccc(NCc2ccc(F)cc2)nc1N,Potency,[1],"inconclusive: 8.33 µM [cytotoxic, partial curve, poor fit]"
Nc1nc(OCc2ccccc2)c2[nH]cnc2n1,Potency,[2],inactive
same,Potency,[1],"inconclusive: 13.2 µM [cytotoxic, partial curve]"
same,Potency,[14],inactive
same,Potency,[3],inactive
same,Potency,[10],"inconclusive: 46.5 µM [cytotoxic, partial curve, poor fit]"
same,Potency,[11],"inconclusive: 2.08 µM [rising, partial curve, poor fit]"
same,Potency,[12],inactive
same,Potency,[13],"inconclusive: 20.8 µM [cytotoxic, partial curve]"
same,Potency,[8],inactive
CC[C@H]1OC(=O)[C@H](C)[C@@H](O[C@H]2C[C@@](C)(OC)[C@@H](O)[C@H](C)O2)[C@H](C)[C@@H](O[C@@H]2O[C@H](C)C[C@H](N(C)C)[C@@H]2O)[C@](C)(O)C[C@@H](C)CN(C)[C@H](C)[C@@H](O)[C@]1(C)O,Potency,[1],inactive
CCOC(=O)C1=C(O)C(=O)N(Cc2ccccc2)C1,Potency,[1],inactive
C[C@H]1[C@H](NC(=O)C(=NOC(C)(C)C(=O)O)c2csc(N)n2)C(=O)N1S(=O)(=O)O,Potency,[1],inactive
O=c1ccc2ccc(O)c(O)c2o1,Potency,[1],"inconclusive: 2.35 µM [cytotoxic, partial curve]"
CC(=O)OCC(=O)[C@@]1(O)CC[C@H]2[C@@H]3CCC4=CC(=O)C=C[C@]4(C)[C@@H]3[C@@H](O)C[C@@]21C,Potency,[1],"inconclusive: 9.35 µM [cytotoxic, single point]"
C=C1C(=O)OC(CCCCCCCC)C1C(=O)O (stereo not given),Potency,[1],inactive
NC(=O)c1ccc(N(C(N)=O)c2c(F)cccc2F)nc1-c1ccc(F)cc1F,Potency,[1],"inconclusive: 13.2 µM [cytotoxic, partial curve]"
CC1(C)CCC(CN2CCN(c3ccc(C(=O)NS(=O)(=O)c4ccc(NCC5CCOCC5)c([N+](=O)[O-])c4)c(Oc4cnc5[nH]ccc5c4)c3)CC2)=C(c2ccc(Cl)cc2)C1,Potency,[2],"inconclusive: 18.7 µM [cytotoxic, partial curve]"
same,Potency,[1],active: 18.7 µM
same,Potency,[14],"inconclusive: 29.3 µM [cytotoxic, single point]"
same,Potency,[4],"inconclusive: 29.3 µM [cytotoxic, single point]"
same,Potency,[12],inactive
same,Potency,[7],"inconclusive: 26.1 µM [cytotoxic, single point]"
same,Potency,[15],"inconclusive: 13.1 µM [cytotoxic, partial curve]"
same,Potency,[8],"inconclusive: 32.9 µM [cytotoxic, single point]"
same,Potency,[9],"inconclusive: 16.5 µM [cytotoxic, partial curve]"

# Looked up one by one from above:
structure (smiles),measurement,setting,value
Nc1nc(OCc2ccccc2)c2[nH]cnc2n1,Potency,[8],inactive
CC[C@H]1OC(=O)[C@H](C)[C@@H](O[C@H]2C[C@@](C)(OC)[C@@H](O)[C@H](C)O2)[C@H](C)[C@@H](O[C@@H]2O[C@H](C)C[C@H](N(C)C)[C@@H]2O)[C@](C)(O)C[C@@H](C)CN(C)[C@H](C)[C@@H](O)[C@]1(C)O,Potency,[1],inactive
Nc1nc(OCc2ccccc2)c2[nH]cnc2n1,Potency,[12],inactive
same,Potency,[14],inactive
